The text below walks through data of patent publication US20160310523A1, “USE OF OXYGEN-CONTAINING GAS SOURCE” (China Medical University, priority 2015, published 2016).

Molecules are shown by their SMILES.

The series in a line: Blood gas analysis of urethane-anesthetized rats receiving different gas sources. The format is in vivo.

For the setting “45 minutes of gas exposure”, `O=O` [100% O2] gave a pCO2 of 48 mmHg, a pH of 7.3 and a pO2 of 361 mmHg. For the setting “90 minutes of gas exposure”, this molecule came in with a pCO2 of 52 mmHg, a pH of 7.4 and a pO2 of 442 mmHg.
